{"source": "paper PMC9576510", "target": "T1, Cell death-inducing DNA fragmentation-factor like effector C (CIDEC) (mouse (endogenous in small intestine tissue)) (UniProt P56198)", "T1 sequence": "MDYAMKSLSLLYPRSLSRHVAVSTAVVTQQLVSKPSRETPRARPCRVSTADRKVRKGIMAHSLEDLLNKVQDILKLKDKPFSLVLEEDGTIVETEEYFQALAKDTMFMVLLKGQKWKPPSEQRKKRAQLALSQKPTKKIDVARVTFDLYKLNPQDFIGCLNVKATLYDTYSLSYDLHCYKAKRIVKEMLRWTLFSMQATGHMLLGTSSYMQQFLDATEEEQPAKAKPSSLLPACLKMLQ", "test": "affinity purification with mass spectrometry; Co-IP/MS: 3 mg small intestine protein supernatant (RIPA) of WT mice, precleared with IgG and protein L-agarose, polyclonal CIDEC antibody 1 h, protein L-agarose at 4 °C overnight, washed twice with RIPA, eluted by boiling, SDS-PAGE, mass spectrum analysis; control IgG precipitate alongside", "note": "These are yes or no findings as the source states them, for the method shown. In cells and extracts the contact can be indirect. Here binding means that the protein was enriched with, or labelled near, the bait; the list need not be complete.", "data": [{"substance": "1-acylglycerol-3-phosphate-O-acyltransferase (AGPAT) (enzyme)", "values": [{"measurement": "binding", "result": "binds"}]}]}
